Experimental data reported in PubChem BioAssay AID330 (DTP/NCI, 2004).
The list shows only some results of the screen, not a fair sample: it is rich in T/C values a quarter to a half above the control, in often repeated tests (any T/C) and in doses without a T/C. Further doses and runs are listed elsewhere. T/C is the treated group as % of the vehicle group. Some doses have a count of surviving animals in place of a T/C: the source holds a T/C of zero for them, seemingly a mark for toxic or unscored doses. Some survivor counts are full or nearly so, which does not show that the dose was tolerated: survival well below the control is almost never listed, so the zero probably covers shortened survival too. Survivors were counted at the toxicity check, usually on the fifth day, unless a day is given; later deaths do not show. Schedule codes are those of the source, taken here to give the interval after Q, in days (D) or hours (H), and the number of doses after X. For survival time, the PubChem record calls one and a half times the control and up active, and a quarter to a half above the control has no call in these data; cut-offs in other NCI protocols can differ. Some doses were run more than once; the values are given in rising order.

Tested on: P388 leukemia ip, CD2F1 mice, survival T/C
Experiment: NCI In Vivo Anticancer Drug Screen. Data for tumor model P388 Leukemia (intraperitoneal) in CD2F1 (CDF1) mice
Settings: T/C endpoint: median survival time, higher T/C = longer survival
[1] = dose: 200.0 mg/kg/injection, schedule: Q01DX009 (ip), vehicle: Klucel (hydroxypropylcellulose) (HPC)
[2] = dose: 50.0 mg/kg/injection, schedule: Q01DX005 (ip), vehicle: saline with Tween-80
[3] = dose: 100.0 mg/kg/injection, schedule: Q01DX005 (ip), vehicle: saline with Tween-80
[4] = dose: 200.0 mg/kg/injection, schedule: Q01DX005 (ip), vehicle: saline with Tween-80
[5] = dose: 200.0 mg/kg/injection, schedule: Q01DX005 (ip), vehicle: Klucel (hydroxypropylcellulose) (HPC)
[6] = dose: 240.0 mg/kg/injection, schedule: Q01DX005 (ip), vehicle: saline with Tween-80
[7] = dose: 400.0 mg/kg/injection, schedule: Q04DX003 (ip), vehicle: saline with Tween-80
[8] = dose: 100.0 mg/kg/injection, schedule: Q01DX009 (ip), vehicle: Klucel (hydroxypropylcellulose) (HPC)
[9] = dose: 100.0 mg/kg/injection, schedule: Q01DX005 (ip), vehicle: Klucel (hydroxypropylcellulose) (HPC)
[10] = dose: 100.0 mg/kg/injection, schedule: Q01DX009 (ip), vehicle: saline with Tween-80
[11] = dose: 200.0 mg/kg/injection, schedule: Q01DX009 (ip), vehicle: saline with Tween-80
[12] = dose: 60.0 mg/kg/injection, schedule: Q01DX005 (ip), vehicle: Klucel (hydroxypropylcellulose) (HPC)
[13] = dose: 120.0 mg/kg/injection, schedule: Q01DX005 (ip), vehicle: Klucel (hydroxypropylcellulose) (HPC)
[14] = dose: 240.0 mg/kg/injection, schedule: Q01DX005 (ip), vehicle: Klucel (hydroxypropylcellulose) (HPC)

CCCCCCCCCCCCNc1ccc(Cl)cc1
T/C [1]: 126 % of control

Fc1ccc2cc3cccc[n+]3cc2c1
survivor count [2]: 3 of 5 | survivor count [3]: 0 of 5 | survivor count [4]: 0 of 5

CN(C)CCC(=O)c1ccc(C(=O)CCN(C)C)cc1
survivor count (dose: 200.0 mg/kg/injection, schedule: Q01DX005 (ip), vehicle: saline): 2 of 6

CCCCN(CCCC)CCCC(C(C)=O)C(=O)OCC (stereo not drawn)
survivor count [5]: 0 of 6

CCCCCCCCCCCC[N+](C)(CCS(=O)(=O)[O-])Cc1ccccc1 (stereo not drawn)
T/C [2]: 137 % of control | survivor count [4]: 2 of 6

CCCCOc1cc(C(=O)O)ccc1[N+](=O)[O-]
survivor count (dose: 100.0 mg/kg/injection, schedule: Q04DX003 (ip), vehicle: saline with Tween-80): 3 of 6

NCc1cc(O)c(O)c(O)c1
T/C (dose: 200.0 mg/kg/injection, schedule: Q01DX009 (ip), vehicle: saline): 133 % of control | T/C (dose: 400.0 mg/kg/injection, schedule: Q01DX009 (ip), vehicle: saline): 129 % of control | survivor count (dose: 600.0 mg/kg/injection, schedule: Q01DX009 (ip), vehicle: saline): 6 of 6

O=C(O)c1ccc2c3c(ccc(C(=O)O)c13)CC2
survivor count [1]: 1 of 6

COc1cc(C)c(/C(=N/O)n2nnc(-c3ccccc3)n2)c(C)c1
survivor count (dose: 120.0 mg/kg/injection, schedule: Q01DX005 (ip), vehicle: saline with Tween-80): 6 of 6 | survivor count [6]: 6 of 6

FC(F)(F)c1ccccc1NC(=S)SCc1ccc2c(c1)OCO2
survivor count (dose: 50.0 mg/kg/injection, schedule: Q01DX009 (ip), vehicle: suspension in saline): 6 of 6 | survivor count (dose: 100.0 mg/kg/injection, schedule: Q01DX009 (ip), vehicle: suspension in saline): 5 of 6 | survivor count (dose: 200.0 mg/kg/injection, schedule: Q01DX009 (ip), vehicle: suspension in saline): 5 of 6

Cc1ncc(CCl)n1Cc1ccccc1
survivor count (dose: 60.0 mg/kg/injection, schedule: Q01DX005 (ip), vehicle: saline): 6 of 6 | survivor count (dose: 120.0 mg/kg/injection, schedule: Q01DX005 (ip), vehicle: saline): 2 of 6 | survivor count (dose: 240.0 mg/kg/injection, schedule: Q01DX005 (ip), vehicle: saline): 0 of 6

CCCN(CCC)CCSC(=S)NCCOC
survivor count [7]: 1 of 6

CNC(=O)OCc1c(COC(=O)NC)c(-c2ccccc2)n(-c2ccccc2)c1C
survivor count [3]: 6 of 6 | survivor count [4]: 4 of 6

O=C1OC(=O)C2c3ccccc3C=CC12 (stereo not drawn)
T/C (dose: 100.0 mg/kg/injection, schedule: Q01DX001 (ip), vehicle: saline with Tween-80): 130 % of control

Nc1nc(N)c(-c2ccc(Cl)c(Cl)c2)c(CP(Cl)(Cl)(Cl)Br)n1
T/C (dose: 50.0 mg/kg/injection, schedule: Q01DX009 (ip), vehicle: Klucel (hydroxypropylcellulose) (HPC)): 135 % of control | survivor count [8]: 1 of 6 | survivor count [1]: 0 of 6 | survivor count (dose: 400.0 mg/kg/injection, schedule: Q01DX009 (ip), vehicle: Klucel (hydroxypropylcellulose) (HPC)): 0 of 6

[NH-]C(CCC(N)=O)C(=O)O.[NH-]C(CCC(N)=O)C(=O)O.[Ni+2] (stereo not drawn)
survivor count (dose: 25.0 mg/kg/injection, schedule: Q01DX005 (ip), vehicle: saline): 6 of 6

CC(C)(C)/C(O)=C/c1nc2ccc(Cl)cc2[nH]c1=O
survivor count (dose: 60.0 mg/kg/injection, schedule: Q01DX005 (ip), vehicle: Klucel + Tween-80): 5 of 5 | survivor count (dose: 120.0 mg/kg/injection, schedule: Q01DX005 (ip), vehicle: Klucel + Tween-80): 6 of 6

CC(C)OC(CCCl)c1ccc(Cl)cc1 (stereo not drawn)
survivor count [7]: 2 of 6

OCC1OC(n2cnc3cncnc32)C(O)C1O (stereo not drawn)
T/C (dose: 50.0 mg/kg/injection, schedule: Q01DX001 (ip), vehicle: saline): 127 % of control

[CH3][Sn]([CH3])([S]c1nc(O)cc(=O)[nH]1)[S]c1nc(O)cc(=O)[nH]1
survivor count (dose: 25.0 mg/kg/injection, schedule: Q01DX005 (ip), vehicle: Klucel (hydroxypropylcellulose) (HPC)): 6 of 6 | survivor count [9]: 1 of 6 | survivor count [5]: 0 of 6

CCC1CN2CCc3cc(OC)c(OC)cc3C2CC12CO2 (stereo not drawn)
survivor count (dose: 50.0 mg/kg/injection, schedule: Q01DX009 (ip), vehicle: saline with Tween-80): 5 of 6 | survivor count [10]: 2 of 6 | survivor count [11]: 0 of 6

CN1CCC[N+](C)=C1c1ccc(N(C)C)cc1
survivor count (dose: 6.25 mg/kg/injection, schedule: Q01DX005 (ip), vehicle: suspension in saline): 0 of 6 | survivor count (dose: 12.5 mg/kg/injection, schedule: Q01DX005 (ip), vehicle: suspension in saline): 0 of 6 | survivor count (dose: 25.0 mg/kg/injection, schedule: Q01DX005 (ip), vehicle: suspension in saline): 0 of 6 | survivor count (dose: 50.0 mg/kg/injection, schedule: Q01DX005 (ip), vehicle: suspension in saline): 0 of 6 | survivor count (dose: 100.0 mg/kg/injection, schedule: Q01DX005 (ip), vehicle: suspension in saline): 0 of 6 | survivor count (dose: 200.0 mg/kg/injection, schedule: Q01DX005 (ip), vehicle: suspension in saline): 0 of 6

CCC(O)(C(=O)O)c1cc[n+](Cc2cnc3ccccc3c2)cc1C (stereo not drawn)
survivor count (dose: 50.0 mg/kg/injection, schedule: Q01DX005 (ip), vehicle: Klucel (hydroxypropylcellulose) (HPC)): 6 of 6 | survivor count [9]: 2 of 6 | survivor count [5]: 0 of 6

Nc1ccc(Cl)cc1C(=O)N1CCN(c2ccc([N+](=O)[O-])cn2)CC1
survivor count [12]: 6 of 6 | survivor count [13]: 6 of 6 | survivor count [14]: 6 of 6

CSC(Cl)=NC(=O)C(=O)N=C(Cl)SC
survivor count [11]: 5 of 6

C/C(=N/NC(N)=O)c1ccc2c3c(cc(Br)c2c1)CCCC3
survivor count [3]: 6 of 6 | survivor count [4]: 5 of 6

CN(C(=O)c1ccc(N)cc1)C1CCN(C2CCCCC2)C1 (stereo not drawn)
survivor count [1]: 1 of 6

CCC(=O)N(C)C(C)C(=O)OC1CC(=O)N(C)c2cc(cc(OC)c2Cl)CC(CO)=C/C=C/C(OC)C2(O)CC(OC(=O)N2)C(C)C2OC12C (stereo not drawn)
T/C (dose: 25.0 micrograms/kg/injection, schedule: Q01DX009 (ip), vehicle: saline + alcohol): 147 % of control | T/C (dose: 50.0 micrograms/kg/injection, schedule: Q01DX009 (ip), vehicle: saline + alcohol): 149 % of control | T/C (dose: 100.0 micrograms/kg/injection, schedule: Q01DX009 (ip), vehicle: saline + alcohol): 136 % of control | T/C (dose: 200.0 micrograms/kg/injection, schedule: Q01DX009 (ip), vehicle: saline + alcohol): 130 and 145 % of control

Cc1oc(C)c(-c2ccccc2)c1C(=O)N1CCN(C)CC1
survivor count [6]: 2 of 6

O=c1c2cnc(-c3ccccc3)nc2oc2ccc3ccccc3c12
survivor count [10]: 6 of 6 | survivor count [11]: 6 of 6

Cc1noc2c1N=C(c1ccccc1)CC(c1ccccc1)C2 (stereo not drawn)
survivor count [8]: 6 of 6

CS1(=O)=NC(=NC#N)c2ccccc21 (stereo not drawn)
survivor count [1]: 5 of 6

CC1(COC(=O)C2(C)CO2)CO1 (stereo not drawn)
T/C (dose: 100.0 mg/kg/injection, schedule: Q01DX005 (ip), vehicle: water): 125 % of control | T/C (dose: 200.0 mg/kg/injection, schedule: Q01DX005 (ip), vehicle: water): 141 and 143 % of control

COC(=O)[CH2][Ge]([c]1ccccc1)[c]1ccccc1.COC(=O)[CH2][Ge]([c]1ccccc1)[c]1ccccc1
survivor count [12]: 6 of 6 | survivor count [13]: 5 of 6 | survivor count [14]: 2 of 6

O=c1ccc(OS(=O)(=O)c2ccccc2)n[nH]1
survivor count [14]: 6 of 6

Cc1ccc(N2CCCCN(c3ccc(C)cc3)/C(c3ccccc3)=C\2c2ccccc2)cc1
survivor count (dose: 100.0 mg/kg/injection, schedule: Q01DX001 (ip), vehicle: Klucel (hydroxypropylcellulose) (HPC)): 5 of 5 | survivor count (dose: 200.0 mg/kg/injection, schedule: Q01DX001 (ip), vehicle: Klucel (hydroxypropylcellulose) (HPC)): 5 of 5
